Laboratory results from the supplement of paper PMC8846439.
Counter-ions that a name gives are not always drawn. This is one part of the list. Most values come without repeats; read them as rough.

The molecules below were run on Trypanosoma brucei brucei bloodstream form L262P (kDNA-independent) (assay: viability Z-score (nuclei count per well, median-polish normalised, relative to plate distribution); higher = more viable parasites (negative = growth inhibition)). Details: 4 days; compound concentration: 10 µM (some Prestwick/PKE rows may be 1 µM / not distinguished).

SMILES | viability Z-score
O=C(N/C2=N/C=1CCCCC=1[S]2)CN3/N=C(/C)C=C3C | -5.75
O=C(NC=1/C=C(/[F])C(C)=CC=1)N/C2=C/C=CC=C2 | -1.92
O=C(NC/C1=C/C=C(/[Cl])C=C1)[C@@]3([H])OC=2C=CC=CC=2OC3 | -3.72
N#CC=4OC=1/N=C(/C)NC=1C2(CCN(CC2)C/C3=C/C=CC=C3)C=4N | -3.24
CC=1N(/N=C(/C)C=1[Br])C/C3=N/N=C(/[S]CC=2C=CC=CC=2[Cl])N3C | -2.33
N#C/C2=C(\N)OC=1NN=C(C=1[C@@]2([H])C=3OC(=CC=3)[N+]([O-])=O)C4=CN=CC=C4 | -1.54
N[C@H](C(=O)O)[C@@H]1CC(Cl)=NO1 [Acivicin] | -1.9
O=C1N(C=C/C=C1/NC(=O)NC/C2=C/C=CC=C2)CC=3C=CC([Cl])=CC=3 | -5.14
O=C1N(C)C(=O)C[C@]1([H])C2=C/C=C(/C)C=C2 | -3.62
O=C(NC=1C=CC([Cl])=CC=1C(=O)NC/C2=C/C(OC)=CC=C2)C=3[S]CCOC=3C | -3.66
O=C(C=1C=CC=CC=1[S]/C2=C/C(OC)=CC=C2)N3CCN(CC3)C=4C=C(C=CC=4)C([F])([F])[F] | -4.72
O=C1OCCN1N=Cc1ccc([N+](=O)[O-])o1 [Furazolidone] | -3.6
O=[S](=O)(C)N(NC(=O)C(O)(CCCCCC)CCCCCC)C1=C/C=C(/C)C=C1 | -2.84
Cc1cc(C(C)(C)CC(C)(C)C)ccc1OCCOCC[N+](C)(C)Cc1ccccc1 [Methyl benzethonium chloride] | -3.37
C[C@]12CC[C@@H]3c4ccc(O)cc4C[C@@H](CCCCCCCCCS(=O)CCCC(F)(F)C(F)(F)F)[C@H]3[C@@H]1CC[C@@H]2O (stereo not given in full) [Fulvestrant] | -7.41
[F]C([F])([F])C4=C/C=C(/CN3CCN(CC=2C=C1OCOC1=CC=2)CC3)C=C4 | -2.6
O=C(NC=1C=CC=NC=1[S]/C2=C/C=C(/C)C=C2)C=3C=C(C=C(C=3)C([F])([F])[F])C([F])([F])[F] | -2.48
Cc1ccc2c(c1)/C(=C1\SC(=NO)NC1=O)C(=O)N2 | -4.23

SMILES | viability Z-score
CC(C)NCc1cccc([N+](=O)[O-])c1 | -3.57
CO/C5=C/C=C(/CN1CCN(CC1)[C@]2([H])[C@@]3([H])C[C@@]4([H])C[C@]2([H])C[C@@]([H])(C3)C4)C=C5 | -2.48
Nc1nc2[nH]c(C(F)(F)F)nc2c(=O)[nH]1 | -2.71
CC(/C=C/C(=O)NO)=C\[C@@H](C)C(=O)c1ccc(N(C)C)cc1 [Trichostatin A] | -4.68
CCOC(=O)[C@@H](Cc1cccc(C(=O)OC)c1)NC(=O)c1ccccc1 | -3.84
O=C(C/C1=C/C=C[S]1)N(C=3C=C2OCOC2=CC=3C(C)=O)[C@]([H])(C4=CC=C[S]4)C(=O)N[C@@]5([H])CCCCC5 | -3.21
NC(=S)NN1[C@@H]2CS[C@H]1CS2 | -5.64
C1CCC(C(CC2CCCCN2)C2CCCCC2)CC1 (stereo not given) [Perhexiline maleate] | -1.31
CCOC(=O)NN[C@@]1(C#N)CCSC1 | -1.45
O=C(NC(=O)N/C1=C/C=C(/[Cl])C=C1)C=2C=NN3C=2N=C(/C=C3/C([F])([F])[F])C([F])([F])[F] | -2.17
O=C(Cn1nc2n(c1=O)-c1cc(Cl)ccc1C1=NCCN12)OC[C@H]1CCCO1 | -5.35
CC[N+](C)(CC)CCC[n+]1c(-c2ccccc2)c2cc(N)ccc2c2ccc(N)cc21 [Propidium iodide] | -5.04
C=CC[N@@+]12CC[C@]34c5ccccc5N5/C=C6\C7N(/C=C(\C53)[C@@H](C[C@@H]41)/C(=C/CO)C2)c1ccccc1[C@@]71CC[N@@+]2(CC=C)C/C(=C\CO)[C@@H]6C[C@@H]12 (stereo not given in full) [Alcuronium chloride] | -4.67
O=C(N/C1=C(/OC2=CC=CC=C12)C(=O)NC(C)(C)C)CC(C)(C)[H] | -4.36
O=C(CCCCCN1C(=O)c2cccc3cccc(c23)C1=O)NO [Scriptaid] | -5.88
N#C/C2=C/C=C(/NC(=O)N/C1=C/C=C(/C#N)C=C1)C=C2 | -2.01
CCCCC(CC)CN=C(N)NC(N)=NCCCCCCN=C(N)NC(N)=NCC(CC)CCCC.Cl.Cl (stereo not given) [Alexidine dihydrochloride] | -1.72

Part of the list above, comma-delimited.
SMILES,viability Z-score
CC(C)NCc1cccc([N+](=O)[O-])c1,-3.57
CO/C5=C/C=C(/CN1CCN(CC1)[C@]2([H])[C@@]3([H])C[C@@]4([H])C[C@]2([H])C[C@@]([H])(C3)C4)C=C5,-2.48
